In publication PMC8084942:
These are yes or no findings as the source states them, for the method shown. In cells and extracts the contact can be indirect. Some binding calls cover weakened binding; strength is not graded here. Where a sequence is shown, tags or fusion partners need not be part of it.

Chains of the proteins cited; added tags and fusions are not shown. Lines headed by an entry give the natural chain unless they say otherwise; changes in a name come on top. A line that says so, or that is headed by a name, gives the form on record, which may keep a tag or linker.
GST-tagged HMGA1B recombinant protein (P17096-2, form named): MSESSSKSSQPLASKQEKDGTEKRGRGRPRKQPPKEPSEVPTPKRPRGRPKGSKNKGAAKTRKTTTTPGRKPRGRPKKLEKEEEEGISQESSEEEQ

T1: V5-tagged POU1F1 (POU class 1 homeobox 1), expressed in HEK293T cells (UniProt P28069)
T1 sequence: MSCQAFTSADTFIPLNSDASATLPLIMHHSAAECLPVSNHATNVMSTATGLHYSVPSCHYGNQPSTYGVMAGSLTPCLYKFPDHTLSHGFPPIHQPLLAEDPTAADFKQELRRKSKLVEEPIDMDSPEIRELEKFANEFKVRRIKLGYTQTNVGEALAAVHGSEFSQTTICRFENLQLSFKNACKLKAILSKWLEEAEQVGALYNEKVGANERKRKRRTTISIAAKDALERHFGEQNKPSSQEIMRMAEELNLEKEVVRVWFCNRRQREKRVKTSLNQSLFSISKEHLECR


What was measured:
[1] = target: T1, V5-tagged POU1F1 (POU class 1 homeobox 1), expressed in HEK293T cells; assay: co-IP; HEK293T cells co-transfected with V5-POU1F1 and HA-HMGA1B or HA-HMGA2, harvested 48 h post-transfection; 1000 ug lysate incubated with anti-V5 or anti-HA conjugated agarose (Pierce Crosslink IP Kit); IgG as control; with or without ethidium bromide; western blot
HA-tagged HMGA1B = HA-tagged HMGA1B (UniProt P17096); assay: as above
[2] = target: GST-tagged HMGA1B recombinant protein (UniProt P17096); assay: pull-down; GST, GST-HMGA1B or GST-HMGA2 recombinant protein conjugated to glutathione agarose (Pierce GST Protein Interaction Pull-Down Kit), incubated with cell lysates of POU1F1-overexpressing HEK293T or SGC7901 cells; eluate analysed by western blot; only the target purified

binding [1] | binding (HA-tagged HMGA1B) | binding [2] | Molecule
binds | – | – | HA-tagged HMGA1B (from UniProt P17096-2 1-96)
– | binds | binds | V5-tagged POU1F1 (POU class 1 homeobox 1), expressed in HEK293T cells (protein, UniProt P28069 1-291) MSCQAFTSADTFIPLNSDASATLPLIMHHSAAECLPVSNHATNVMSTATGLHYSVPSCHYGNQPSTYGVMAGSLTPCLYKFPDHTLSHGFPPIHQPLLAEDPTAADFKQELRRKSKLVEEPIDMDSPEIRELEKFANEFKVRRIKLGYTQTNVGEALAAVHGSEFSQTTICRFENLQLSFKNACKLKAILSKWLEEAEQVGALYNEKVGANERKRKRRTTISIAAKDALERHFGEQNKPSSQEIMRMAEELNLEKEVVRVWFCNRRQREKRVKTSLNQSLFSISKEHLECR
– | – | binds | V5-tagged POU1F1 (POU class 1 homeobox 1), expressed in SGC7901 cells (protein, UniProt P28069 1-291) MSCQAFTSADTFIPLNSDASATLPLIMHHSAAECLPVSNHATNVMSTATGLHYSVPSCHYGNQPSTYGVMAGSLTPCLYKFPDHTLSHGFPPIHQPLLAEDPTAADFKQELRRKSKLVEEPIDMDSPEIRELEKFANEFKVRRIKLGYTQTNVGEALAAVHGSEFSQTTICRFENLQLSFKNACKLKAILSKWLEEAEQVGALYNEKVGANERKRKRRTTISIAAKDALERHFGEQNKPSSQEIMRMAEELNLEKEVVRVWFCNRRQREKRVKTSLNQSLFSISKEHLECR
